Data: the supplement of paper PMC7125110
± gives the standard error. The uncertainty is large for many entries.

B1: glmS ribozyme (parent)
chain: AUAAAAGCGCCAGAACUACAGAAAUGUAGUUGACGAGGAGGAGGUUUAUCGAAUUUUCGGCGGAUGCCUCCAAA

Variants of: B1
Experiment: self-cleavage kobs at 40 uM GlcN6P; higher = faster cleavage; RNA array
Details: with glucosamine-6-phosphate
Outline: (§1)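 Over ~14 h at 37 °C, tiles were imaged as glucosamine-6-phosphate (40 μM to 10 mM) in HEPES/KCl/Mg(OAc)2 buffer flowed across sequenced MiSeq chips. The chips carried barcoded ribozyme variants transcribed in situ by E. coli RNA polymerase and tracked with a hybridised Cy3 probe. After normalisation to baseline and to non-cleaving reference variants, one- or two-exponential decay fits of per-tile medians gave kobs. kcat and KM followed from weighted Michaelis–Menten fits across concentrations.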

Variant | self-cleavage kobs at 40 uM GlcN6P [s⁻¹]
AUAAAAGCGCCAGAACUACAGAAAUGUAGCUGACGAGGAGGGGGUUUAUCGAAUUUUCGGCGGAUGCCUCCAAA [U30C A42G] | 2.53e-05 ± 2.1e-05
AUAAAAGCGCCAGAACUACAGAAAUGUAGUCGACGAGGAGGAGGUUGAUCGAAUUUUCGGCGGAUGCCUGCAAA [U31C U47G C70G] | 2.61e-05 ± 2.2e-05
AUAAAAGCGCCAGAACUACAGAAAUGUAGUGGACGAGGAGGAGGCUUAUCGAAUUUUCGGCGGAUGCCUCCAAA [U31G U45C] | 4.35e-05 ± 2.4e-05
AUAAAAGCGCCAGAACUACAGAAAUGUAGUCGACGAGGAGGAGGUUUAUCGACUUUUCGGCGGAUGCCUCCAAA [U31C A53C] | 2.38e-05 ± 1.4e-05
AUAAAAGCGCCAGAACUACAGAAAUGUAGGUGACGAGGAGGAGGUUUAUCGAAUUUUCGGCGGAUGCUUCCAAA [U30G C68U] | 1.94e-05 ± 1.3e-05
AUAAAAGCGCCAGAACUACAGAAAUGUAGAUGACGAGUAGGAGGUUUAUCGAAUUUUCGGCGGAUGCCACCAAA [U30A G38U U69A] | 2.89e-05 ± 2.1e-05
AUAAAAGCGCCAGAACUACAGAAAUGUAGUUUACGAGGAGGAGGUUUAUCGAAUUUUCGGCGGAUGCCUUCAAA [G32U C70U] | 1.41e-05 ± 1e-05
AUAAAAGCGCCAGAACUACAGAAAUGUAGUUCACGAGGAGGAGGUUUAUCGAAAUUUCGGCGGAUGCGUCCAAA [G32C U54A C68G] | 3.17e-05 ± 2.9e-05
AUAAAAGCGCCAGAACUACAGAAAUGUAGCUGACGAGGAGGAGGUUUAUCGAAUUUUCCGUGGAUGCCUACAAA [U30C G59C C61U C70A] | 4.23e-05 ± 2.5e-05
AUAAAAGCGCCAGAACUACAGAAAUGUAGUAGCCAAGGAGGAGGUUUAUCGAAUUUUCGGCGGAUGCCGCCAAA [U31A A33C G35A U69G] | 0.00056 ± 0.00032
AUAAAAGCGCCAGAACUACAGAAAUGUAGUCGACGAGGAGGAGGUUUAUCGAAUUUUCGGCGGAUGCCUCGAAA [U31C C71G] | 2.97e-05 ± 1.5e-05
AUAAAAGCGCCAGAACUACAGAAAUGUAGGUGACGAGGAGGAGGUUUAUCGAAUUUUCGGCGGAGGCCUCCAAA [U30G U65G] | 2.28e-05 ± 1.2e-05
AUAAAAGCGCCAGAACUACAGAAAUGUAGUGAACGAGGAGGAGGUUUAUCGAAUUUUCGGCGGGUGCCUCCAAA [U31G G32A A64G] | 3.44e-05 ± 2.6e-05
AUAAAAGCGCCAGAACUACAGAAAUGUAGUCGACGAGGAGGAGGUUCAUCGAAUUUUCGGCGGAUGCCUUCAAA [U31C U47C C70U] | 2.84e-05 ± 2.8e-05
AUAAAAGCGCCAGAACUACAGAAAUGUAGUUAACGAGGAGGAGGUUUAUCGAAUUUUCGGCGGAUGUCUCCAAA [G32A C67U] | 1.43e-05 ± 8.8e-06
AUAAAAGCGCCAGAACUACAGAAAUGUAGUGGACGAGUAGGAGGUUUAUCGAAUUUUCGGCGGAUGCCACUAAA [U31G G38U U69A C71U] | 3.2e-05 ± 2.3e-05
AUAAAAGCGCCAGAACUACAGAAAUGUAGUGGACGUGGAGGAGGUUUAUAGAAUUUUCGGCGGAUGCCUCGAAA [U31G A36U C50A C71G] | 5.86e-05 ± 3.4e-05
AUAAAAGCGCCAGAACUACAGAAAUGUAGUGGACGCGGAGGAGGUUUAUCGAAUUUUCGGCGGAUGCCUGCAAA [U31G A36C C70G] | 3.9e-05 ± 2.8e-05
AUAAAAGCGCCAGAACUACAGAAAUGUAGUUUACGAGGAGGAGGUUUAUCGAAUUUUCGGCGGAUGACUCCAAA [G32U C67A] | 1.55e-05 ± 1.4e-05
AUAAAAGCGCCAGAACUACAGAAAUGUAGUCGACGAGGAGGAGGUUUAUCGAAUUGUCGGCGGAUGUCUCCAAA [U31C U56G C67U] | 2.44e-05 ± 1.7e-05
AUAAAAGCGCCAGAACUACAGAAAUGUAGUAGACGAGGAGGAGGUUUAUUGAAUUUUCGGCGGAUGCCUGCAAA [U31A C50U C70G] | 2.91e-05 ± 2.6e-05
AUAAAAGCGCCAGAACUACAGAAAUGUAGUGGACGAGGAGGAGGUUUAUCGAAUUUUCGGCGGAUGCCUACAAA [U31G C70A] | 2.86e-05 ± 2.6e-05
AUAAAAGCGCCAGAACUACAGAAAUGUAGUGGACGAGGAGGAGGUUUAUCGAAUUUUCGGCGGAUGCCUGCAAA [U31G C70G] | 1.83e-05 ± 1.6e-05
AUAAAAGCGCCAGAACUACAGAAAUGUAGUUUAUGGGGAGGAGGUUUAUCAAAUUUUCGGCGGAUGCCUGCAAA [G32U C34U A36G G51A C70G] | 3.38e-05 ± 2.2e-05
AUAAAAGCGCCAGAACUACAGAAAUGUAGUGGACGAGGAGGAGGUUUAUCGAAUUUUCGGCGGAUGCCGCCAAA [U31G U69G] | 3.21e-05 ± 1.8e-05
AUAAAAGCGCCAGAACUACAGAAAUGUAGUCGACGAGGAGGAGGUUUAUCCAAUUUUCGGCGGAUGCCGCCAAA [U31C G51C U69G] | 3.81e-05 ± 2.5e-05
AUAAAAGCGCCAGAACUACAGAAAUGUAGUUAACGAGGAGGAGGUUUAUCGGAUUUUCGGCGGAUGCCUACAAA [G32A A52G C70A] | 4.8e-05 ± 3.3e-05
AUAAAAGCGCCAGAACUACAGAAAUGUAGUUAACGAGGAGGAGGUUUAUCGAAUUUUCGGCGGAUGCCUCAAAA [G32A C71A] | 2.12e-05 ± 1.5e-05
AUAAAAGCGCCAGAACUACAGAAAUGUAGUAGACGUGGAGGAGGUUGAUCGAAUUUUCGGCGGAUGCCUGCAAA [U31A A36U U47G C70G] | 3.13e-05 ± 2.2e-05
AUAAAAGCGCCAGAACUACAGAAAUGUAGGCGACGAGGUGGAGGUUUAUCGAAUUUUCGGCGGAUGCCUCCAAA [U30G U31C A39U] | 2.11e-05 ± 1.8e-05

Given as labelled records: entries from further up.
AUAAAAGCGCCAGAACUACAGAAAUGUAGUGGACGCGGAGGAGGUUUAUCGAAUUUUCGGCGGAUGCCUGCAAA [U31G A36C C70G]
  self-cleavage kobs at 40 uM GlcN6P [s⁻¹]: 3.9e-05 ± 2.8e-05
AUAAAAGCGCCAGAACUACAGAAAUGUAGUUUACGAGGAGGAGGUUUAUCGAAUUUUCGGCGGAUGACUCCAAA [G32U C67A]
  self-cleavage kobs at 40 uM GlcN6P [s⁻¹]: 1.55e-05 ± 1.4e-05
AUAAAAGCGCCAGAACUACAGAAAUGUAGUCGACGAGGAGGAGGUUUAUCGAAUUGUCGGCGGAUGUCUCCAAA [U31C U56G C67U]
  self-cleavage kobs at 40 uM GlcN6P [s⁻¹]: 2.44e-05 ± 1.7e-05

Variants of: B1
Experiment: self-cleavage kobs at 10000 uM GlcN6P; higher = faster cleavage; RNA array
Details: with glucosamine-6-phosphate
Outline: as §1

Variant | self-cleavage kobs at 10000 uM GlcN6P [s⁻¹]
AUAAAAGCGCCAGAACUACAGAAAUGUAGAUGACGAGUAGGAGGUUUAUCGAAUUUUCGGCGGAUGCCACCAAA [U30A G38U U69A] | 2.37e-05 ± 1.9e-05
AUAAAAGCGCCAGAACUACAGAAAUGUAGUUUAUGGGGAGGAGGUUUAUCAAAUUUUCGGCGGAUGCCUGCAAA [G32U C34U A36G G51A C70G] | 2.37e-05 ± 2.3e-05

Variants of: B1
Experiment: self-cleavage kobs at 160 uM GlcN6P; higher = faster cleavage; RNA array
Details: with glucosamine-6-phosphate
Outline: as §1

Variant | self-cleavage kobs at 160 uM GlcN6P [s⁻¹]
AUAAAAGCGCCAGAACUACAGAAAUGUAGUCGACGAGGAGGAGGUUUAUCGAAUUUUCGGCGGAUGCCUCGAAA [U31C C71G] | 0.00279 ± 0.0018
AUAAAAGCGCCAGAACUACAGAAAUGUAGUUUACGAGGAGGAGGUUUAUCGAAUUUUCGGCGGAUGACUCCAAA [G32U C67A] | 1.75e-05 ± 1.4e-05
AUAAAAGCGCCAGAACUACAGAAAUGUAGUGGACGAGGAGGAGGUUUAUCGAAUUUUCGGCGGAUGCCUACAAA [U31G C70A] | 3.54e-05 ± 3.1e-05

Variants of: B1
Experiment: self-cleavage kobs at 2500 uM GlcN6P; higher = faster cleavage; RNA array
Details: with glucosamine-6-phosphate
Outline: as §1

Variant | self-cleavage kobs at 2500 uM GlcN6P [s⁻¹]
AUAAAAGCGCCAGAACUACAGAAAUGUAGUGGACGCGGAGGAGGUUUAUCGAAUUUUCGGCGGAUGCCUGCAAA [U31G A36C C70G] | 5.41e-05 ± 4.4e-05
AUAAAAGCGCCAGAACUACAGAAAUGUAGUUUAUGGGGAGGAGGUUUAUCAAAUUUUCGGCGGAUGCCUGCAAA [G32U C34U A36G G51A C70G] | 4e-05 ± 2.4e-05
